IC50 data for one compound are collected here from ChEMBL document CHEMBL1151717, “In vivo active aldosterone synthase inhibitors with improved selectivity: lead optimization providing a series of pyridine substituted 3,4-dihydro-1H-quinolin-2-one derivatives” (J Med Chem, 2008).

The experiment can be described thus: Selectivity ratio, IC50 for human CYP11B1 to IC50 for human CYP11B2.

Take `N#Cc1ccc(C2CCCc3cncn32)cc1` (stereo unspecified) [FADROZOLE]: the IC50 (commonly the concentration needed to halve the response being measured) was 10 nM.
